Data published in patent publication US20080166323A1, “Activators of Hexosamine Biosynthesis as Inhibitors of Injury Induced by Ischemia or Hermorrhagic Shock” (UAB RESEARCH FOUNDATION, priority 2004, published 2008).

Columns and labels:
[1] = test system: rat model of trauma-hemorrhage and resuscitation; assay: soft tissue trauma-hemorrhage (T-H) and resuscitation, Example 1 (glucosamine before hemorrhage and during resuscitation); assay type: in vivo; details: G-T-H (n = 3), mean ± SEM
Method: (§1) The following experiments were conducted using a model of soft tissue trauma-hemorrhage (T-H) as described in Ba, et al., Crit. Care Med (2000) 28(8):2837-2842; Chaudry, et al., Can J Physiol Pharmacol (1975) 53(5):859-865; Ma, et al., Am J Physiol Gastrointest Liver Physiol (2003) 284(1):G107-G115; and Harkema and Chaudry, Crit. Care Med (1992) 20(2):263-275. Male rats were fasted for 16 h and divided into three groups: (1) sham (trauma only); (2) T-H (trauma with subsequent hemorrhage and resuscitation); and (3) G-T-H (trauma with subsequent hemorrhage and resuscitation in the presence of glucosamine). All groups underwent a 5 cm ventral midline laparotomy to induce soft-tissue trauma and were cannulated in both femoral arteries and the right femoral vein. The T-H and G-T-H groups received an infusion of 3 mls over 30 minutes of Ringer's lactate (RL) containing, in the G-T-H group only, 10 mM glucosamine. These two groups were then bled to a mean arterial pressure of 40 mm Hg within 10 minutes and maintained at that pressure for 80 minutes. The T-H group was then infused with 1 ml RL over 10 minutes, while in the G-T-H group the infusate contained an iso-osmotic solution of 75 mM glucosamine (pH 7.4) in 50% RL. The two groups were then resuscitated with four times the maximum hemorrhage volume over a period of 60 minutes with RL (T-H) or RL containing 10 mM glucosamine (G-T-H). Sham-operated animals underwent the same surgical procedure but were neither bled nor resuscitated. Two hours post-resuscitation, a catheter was inserted into the left ventricle via the right carotid artery. Organ blood flows were determined using radioactive microspheres. Cardiac function and blood parameters were also assessed. The data for these experiments are shown in Tables 1 and 2 (values are mean ±standard error of the mean).

[2] = test system: rat model of trauma-hemorrhage and resuscitation; assay: trauma/hemorrhage mimicking the field, Example 2 (glucosamine only during resuscitation); assay type: in vivo; details: G-T-H (n = 8), 2 h after T-H, mean ± SEM
Method: as §1, with “The two groups were then resuscitated with four times the maximum hemorrhage volume over a period of 60 minutes with RL (T-H) or RL containing 10 mM glucosamine (G-T-H). Sham-operated animals underwent the same surgical procedure but were neither bled nor resuscitated. Two hours post-resuscitation, a catheter was inserted into the left ventricle via the right carotid artery.” left out, “The data for these experiments are shown in Tables 1 and 2 (values are mean ±standard error of the mean).” left out

[3] = 2 h after T-H, glucosamine before hemorrhage and in resuscitation

Q: Which Hematocrit [1, 3] does the source give for `N[C@H]1C(O)O[C@H](CO)[C@@H](O)[C@@H]1O` (some centres unmarked) [glucosamine] here?
A: Its Hematocrit is 17.6 ± 0.2%.

Q: And the Hemoglobin [1, 3]?
A: Its Hemoglobin is 5.6 ± 0.1 g.

Q: What about the “Maximum Hemorrhage Volume” value ([1]; glucosamine infused before hemorrhage) of the same compound?
A: Its value is 12.2 ± 0.7 mls.

Q: And the Hematocrit [2]?
A: Its Hematocrit is 16.74 ± 0.76%.

Q: What about the Hemoglobin [2] of the same compound?
A: Its Hemoglobin is 5.31 ± 0.26 g.
